Assay: Sensitivity study of DMNB reacting with nitric oxide (ESR signal to noise)
Conditions: DMNB 0.1 M, 1 hr 40 min, room temperature

## Cc1cccc(C)c1N=O [DMNB, 2,6-Dimethylnitrosobenzene]
  Limit of detection (S/N = 3): 6.73 µM

Source: patent publication US20030109051A1, “Spin trap for use in biological systems” (RANDOX LABORATORIES LTD, priority 2001, published 2003)
